According to US20100135951A1:
No constants are given. Whether binding was seen depends on the method and setting. Binding seen in cells or lysates may run through a third protein. Some binding calls cover weakened binding; strength is not graded here.

By UniProt entry, the sequences of proteins in these tests, tags left out. Residues count along the entry.
UniProt O00220, residues 24-468: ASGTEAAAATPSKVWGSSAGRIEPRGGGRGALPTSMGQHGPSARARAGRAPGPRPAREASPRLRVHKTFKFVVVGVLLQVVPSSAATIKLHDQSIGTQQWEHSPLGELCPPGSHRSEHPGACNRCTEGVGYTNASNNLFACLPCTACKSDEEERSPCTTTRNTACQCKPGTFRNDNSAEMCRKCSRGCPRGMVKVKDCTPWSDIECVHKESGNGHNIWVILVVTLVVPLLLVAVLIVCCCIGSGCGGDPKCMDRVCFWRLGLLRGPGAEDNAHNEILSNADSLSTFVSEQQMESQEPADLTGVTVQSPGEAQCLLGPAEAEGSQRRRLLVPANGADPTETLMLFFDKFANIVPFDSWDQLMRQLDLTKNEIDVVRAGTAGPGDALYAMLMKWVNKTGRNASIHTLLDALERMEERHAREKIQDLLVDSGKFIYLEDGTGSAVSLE
UniProt Q13158: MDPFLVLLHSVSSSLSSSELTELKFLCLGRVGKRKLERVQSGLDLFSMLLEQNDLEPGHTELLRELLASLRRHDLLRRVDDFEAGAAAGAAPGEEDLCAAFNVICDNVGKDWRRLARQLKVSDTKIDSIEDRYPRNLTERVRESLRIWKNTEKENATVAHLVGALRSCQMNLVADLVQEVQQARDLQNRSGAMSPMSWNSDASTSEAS

Target: TRAIL-R1 (human) (UniProt O00220)
Assay: co-immunoprecipitation from MDA231 cells after 2E12 treatment, Western blot

Q: With FADD (from UniProt Q13158 1-208) as the substance, how does the binding read?
A: The binding was “binds”.
